Reference: PubChem BioAssay AID1487 (National Center for Advancing Translational Sciences (NCATS), 2009)
The other results are listed elsewhere or left out. Further columns of the screen follow, without active or inactive calls. Most of these compounds were active or inconclusive in the main read-out, so they are no random draw. Words in brackets tell the shape of the fitted curve; partial curves, single points and poor fits give uncertain potencies.

Assay: qHTS Assay for Modulators of Lamin A Splicing
Conditions: HeLa LMNA splicing GFP/RFP minigene ratio, 48 h
In short: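 Read-out is the ratio of GFP to DsRed2 object intensity, acquired by 488 nm laser-scanning cytometry on HeLa lamin A-EGFP minigene reporter cells. Compound incubation 48 hrs at 37 °C in Opti-MEM with 2% FBS; DMSO 0.5% final.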

[1] = measured here: GFP splicing reporter channel
[2] = measured here: RFP viability control channel

| SMILES | AC50 [1] | AC50 [2] |
| --- | --- | --- |
| CC1CCN(C(=O)CN(c2ccc(Oc3ccccc3)cc2)S(C)(=O)=O)CC1 | 15.8 µM [rising, partial curve, poor fit] | 11.2 µM [rising, partial curve] |
| NCCO/C=C/[C@H](N)C(=O)O | 0.00282 µM [falling, full curve, poor fit] | 0.00398 µM [falling, full curve, poor fit] |
| COCCNc1oc(-c2ccccc2)nc1S(=O)(=O)c1ccc(Br)cc1 | 0.708 µM [falling, full curve, poor fit] | 0.158 µM [falling, full curve, poor fit] |
| Cc1cccc(-n2cc(-c3ccccc3)c3c(N4CCOCC4)ncnc32)c1 | 2.82 µM [falling, partial curve] | 20 µM [falling, single point] |
| c1ccc2sc(C3CCN(Cc4nnnn4Cc4ccc5c(c4)OCO5)CC3)nc2c1 | 0.0501 µM [rising, full curve, poor fit] | 14.1 µM [rising, partial curve, poor fit] |
| COc1ccc(S(=O)(=O)Nc2ccccc2OC)cc1NC(=O)Cc1cccs1 | – | 14.1 µM [rising, single point] |
| COc1ccc2sc(N(Cc3cccnc3)C(=O)c3ccc4c(c3)OCCO4)nc2c1 | 25.1 µM [rising, single point] | 31.6 µM [rising, single point] |
| O=C(CSc1ncn[nH]1)Nc1cccc(S(=O)(=O)N2CCCCCC2)c1 | – | 11.2 µM [rising, partial curve] |
| COC(=O)c1c(N)sc2c1CCN(c1ncc(C(F)(F)F)cc1Cl)C2 | – | 12.6 µM [rising, single point] |
| COc1ccc(CC(=O)N2CCc3cc(OC)c(OC)cc3C2COc2cc(C)cc(C)c2)cc1OC (stereo unspecified) | – | 0.0282 µM [rising, full curve, poor fit] |
| Oc1ccccc1-c1nc(NCCN2CCOCC2)c2ccccc2n1 | – | 10 µM [rising, partial curve, poor fit] |
| O=C(CCNC(=O)c1ccc([N+](=O)[O-])cc1)N/N=C/c1ccc(F)cc1 | – | 0.00316 µM [falling, full curve] |
| COC(=O)c1[nH]c2ccc(F)cc2c1NS(=O)(=O)c1ccc(F)c(C)c1 | 1.58 µM [falling, partial curve, poor fit] | 2 µM [falling, partial curve, poor fit] |
| CCN1CCN(C(=O)CCN2C(=O)c3ccccc3C2=O)CC1 | 0.501 µM [falling, single point] | – |
| CSc1scc2c1-c1nc(SCC(=O)C(C)(C)C)ncc1CC2 | 2.24 µM [falling, single point] | 3.98 µM [falling, full curve] |
| Brc1ccc2c(c1)OCCOCCOc1cc(Br)ccc1OCCOCCOCCO2 | – | 12.6 µM [rising, partial curve] |
| CCOc1cc(N2CCOCC2)c(OCC)cc1NC(=O)CN1C(=O)C2CC=CCC2C1=O (stereo unspecified) | – | 0.0794 µM [falling, full curve] |

| SMILES | AC50 [1] | AC50 [2] |
| --- | --- | --- |
| Cc1nn(C)c(C(=O)N/N=C/c2ccc(Br)cc2)c1Cl | 0.178 µM [rising, full curve, poor fit] | – |
| Cc1ccc2nc(/C(C#N)=C/c3ccc(-c4cccc([N+](=O)[O-])c4)o3)[nH]c2c1 | – | 0.0631 µM [rising, full curve, poor fit] |
| O=C1c2cccc3cccc(c23)C(=O)N1CC1CCN(S(=O)(=O)c2ccc(F)cc2)CC1 | – | 35.5 µM [rising, single point] |
| Cc1cccc(CCNS(=O)(=O)c2ccc(S(=O)(=O)NC3CCCC3)cc2)c1 | – | 25.1 µM [rising, single point] |
| CCC1CN(C(=O)N2CCC(C(=O)Nc3ccccc3F)CC2)c2ccccc2O1 (stereo unspecified) | 11.2 µM [falling, partial curve] | 10 µM [falling, partial curve] |
| COc1ccc(NC(=O)CN2C(=O)COc3ccc(S(=O)(=O)N4CCCCCC4)cc32)cc1 | 0.02 µM [rising, full curve, poor fit] | – |
| Cc1cc(C2=NNC(=NC3CC3)SC2)c(C)n1-c1ccccc1 | – | 35.5 µM [rising, single point] |
| N#Cc1ccc(/C=N/NC(=O)c2cc(-c3cccs3)nc3ccccc23)cc1 | – | 6.31 µM [rising, full curve, poor fit] |
| Cc1ccc(S(=O)(=O)N(C)C)cc1NC(=S)NC(=O)C12CC3CC(CC(C3)C1)C2 | 7.08 µM [rising, partial curve] | 5.01 µM [rising, full curve] |
| CCCCNC(=O)CN1C(=O)C(CC)Oc2ccc(Cl)cc21 (stereo unspecified) | 0.794 µM [falling, single point] | 0.794 µM [falling, single point] |
| CCOC(=O)c1ccc(NC(=O)CSc2nc3sc(C(=O)O)c(C)c3c(=O)[nH]2)cc1 | 0.0794 µM [falling, full curve, poor fit] | – |
| CCN(CC)S(=O)(=O)c1ccc(N2CCN(c3cccc(OC)c3)CC2)c([N+](=O)[O-])c1 | 10 µM [rising, partial curve] | 17.8 µM [rising, partial curve] |
| COC(=O)c1ccc(C(=O)OC)c(NC(=O)CN(C)Cc2ccc(Cl)c(Cl)c2)c1 | – | 0.0178 µM [rising, full curve, poor fit] |
| O=C(Nc1cccc(Cl)c1Cl)c1cc(S(=O)(=O)NCc2ccc3c(c2)OCO3)ccc1F | 0.158 µM [rising, partial curve] | – |
| Cc1cccc2cc(C#N)c(NCCNS(=O)(=O)c3ccc4c(c3)OCCO4)nc12 | – | 12.6 µM [rising, single point] |
| O=C(Nc1cc(Cl)ccc1Oc1ccccc1)c1ccccc1F | – | 14.1 µM [rising, single point] |
| c1ccc(CC2CCN(c3nc4ccccc4n4cnnc34)CC2)cc1 | – | 35.5 µM [rising, single point] |
